Test results from US20230310601A1 (UNIVERSITY OF SOUTHERN CALIFORNIA, published 2023).
Results are given in words; binding and its absence hold for the method and conditions named. Some results given as binding are weak or reduced against the parent protein; the word gives no strength. Where a sequence is shown, tags or fusion partners need not be part of it.

By UniProt entry, the sequences of proteins in these tests, tags left out. Where a name states a change or a piece, a line headed by the entry shows the natural chain unless it says otherwise. Residues count along the entry.
UniProt Q15116, residues 25-288: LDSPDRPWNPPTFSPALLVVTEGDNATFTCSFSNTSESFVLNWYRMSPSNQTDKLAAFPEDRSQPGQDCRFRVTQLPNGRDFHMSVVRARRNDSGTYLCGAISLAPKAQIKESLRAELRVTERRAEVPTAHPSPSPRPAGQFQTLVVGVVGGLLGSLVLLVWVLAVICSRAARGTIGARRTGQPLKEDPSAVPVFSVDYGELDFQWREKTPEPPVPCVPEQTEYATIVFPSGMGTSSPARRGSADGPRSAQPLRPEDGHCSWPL

Tests used:
[1] = molecular target: PD-1 expressed on the cell surface of engineered 293T cells (UniProt Q15116); experiment: flow cytometry; supernatant of transfected 293T cells on 293T-PD-1 cells, wild-type 293T supernatant as control
[2] = molecular target: PD-1 expressed on the cell surface of engineered 293T cells (UniProt Q15116); experiment: flow cytometry; supernatant of transfected 293T cells incubated 1 h with 293T cells expressing PD-1

B1: trap protein labeled with a His-tag (anti-PD-1 scFv fused to a TGF-β-binding sequence of TGF-βRII, produced in transfected 293T cells) (other, not shown: small tags and cut ends)
chain: DIVLTQSPATLSLSPGERATLSCRASKSVSTSGFNYMHWYQQKPGQAPRLLIFLASNLASGVPARFSGSGSGTDFTLTISSLEPEDFAVYYCQHGRELPLTFGQGTKLEIGGGGSGGGGSGGGGSQVQLVQSGAEVKKPGASVKVSCKASGYTFTNYYMYWVRQAPGQGLEWIGGINPSNGGTNFNEKFKNKATMTVDKSTSTAYMELSSLRSEDTAVYYCTRRDYNYDGGFDYWGQGTLVTVSSGGGGSGGGGSTIPPHVQKSVNNDMIVTDNNGAVKFPQLCKFCDVRFSTCDNQKSCMSNCSITSICEKPQEVCVAVWRKNDENITLETVCHDPKLPYHDFILEDAASPKCIMKEKKKPGETFFMCSCSSDECNDNIIFSEEYNTSNPD
notes: Western blot gives 56 kDa; The text says the scFv derives from antibody 5C4; also called bifunctional trap protein; purified trap protein
B1 was tested, and the binding [1] was “binds” and the binding [2] was “binds”.
